# Assay results reported in PMC12293422.
# Sequences of proteins named here, by UniProt entry; tags and fusion partners are left off. A change or cut given only in a name is not applied to a line headed by its entry. A line that says so, or that is headed by a name, gives the form on record, which may keep a tag or linker.
# UniProt Q9NQS7: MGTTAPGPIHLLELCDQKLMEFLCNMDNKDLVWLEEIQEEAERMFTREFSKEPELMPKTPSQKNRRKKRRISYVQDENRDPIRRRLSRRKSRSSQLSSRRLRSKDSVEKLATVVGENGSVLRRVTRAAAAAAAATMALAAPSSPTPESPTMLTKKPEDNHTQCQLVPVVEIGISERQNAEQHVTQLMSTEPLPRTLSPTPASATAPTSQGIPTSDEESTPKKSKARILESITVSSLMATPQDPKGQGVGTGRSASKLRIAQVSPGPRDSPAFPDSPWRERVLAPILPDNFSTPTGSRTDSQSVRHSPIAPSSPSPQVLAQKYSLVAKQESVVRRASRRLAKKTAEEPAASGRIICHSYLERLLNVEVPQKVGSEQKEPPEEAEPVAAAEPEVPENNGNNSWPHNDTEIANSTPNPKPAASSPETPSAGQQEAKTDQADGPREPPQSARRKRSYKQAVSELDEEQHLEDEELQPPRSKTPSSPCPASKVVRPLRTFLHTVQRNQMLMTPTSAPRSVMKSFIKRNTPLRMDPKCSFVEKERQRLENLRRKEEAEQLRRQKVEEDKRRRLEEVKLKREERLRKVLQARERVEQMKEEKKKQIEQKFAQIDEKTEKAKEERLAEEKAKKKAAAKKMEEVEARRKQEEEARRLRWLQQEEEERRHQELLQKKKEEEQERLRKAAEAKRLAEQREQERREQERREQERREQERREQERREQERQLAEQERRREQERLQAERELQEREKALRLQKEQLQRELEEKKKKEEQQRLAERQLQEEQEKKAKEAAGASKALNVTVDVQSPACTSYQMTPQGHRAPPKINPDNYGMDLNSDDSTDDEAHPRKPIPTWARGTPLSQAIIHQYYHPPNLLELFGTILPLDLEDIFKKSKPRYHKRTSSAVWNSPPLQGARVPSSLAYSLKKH
# Flag-tagged INCENP (inner centromere protein) (Q9NQS7, form named): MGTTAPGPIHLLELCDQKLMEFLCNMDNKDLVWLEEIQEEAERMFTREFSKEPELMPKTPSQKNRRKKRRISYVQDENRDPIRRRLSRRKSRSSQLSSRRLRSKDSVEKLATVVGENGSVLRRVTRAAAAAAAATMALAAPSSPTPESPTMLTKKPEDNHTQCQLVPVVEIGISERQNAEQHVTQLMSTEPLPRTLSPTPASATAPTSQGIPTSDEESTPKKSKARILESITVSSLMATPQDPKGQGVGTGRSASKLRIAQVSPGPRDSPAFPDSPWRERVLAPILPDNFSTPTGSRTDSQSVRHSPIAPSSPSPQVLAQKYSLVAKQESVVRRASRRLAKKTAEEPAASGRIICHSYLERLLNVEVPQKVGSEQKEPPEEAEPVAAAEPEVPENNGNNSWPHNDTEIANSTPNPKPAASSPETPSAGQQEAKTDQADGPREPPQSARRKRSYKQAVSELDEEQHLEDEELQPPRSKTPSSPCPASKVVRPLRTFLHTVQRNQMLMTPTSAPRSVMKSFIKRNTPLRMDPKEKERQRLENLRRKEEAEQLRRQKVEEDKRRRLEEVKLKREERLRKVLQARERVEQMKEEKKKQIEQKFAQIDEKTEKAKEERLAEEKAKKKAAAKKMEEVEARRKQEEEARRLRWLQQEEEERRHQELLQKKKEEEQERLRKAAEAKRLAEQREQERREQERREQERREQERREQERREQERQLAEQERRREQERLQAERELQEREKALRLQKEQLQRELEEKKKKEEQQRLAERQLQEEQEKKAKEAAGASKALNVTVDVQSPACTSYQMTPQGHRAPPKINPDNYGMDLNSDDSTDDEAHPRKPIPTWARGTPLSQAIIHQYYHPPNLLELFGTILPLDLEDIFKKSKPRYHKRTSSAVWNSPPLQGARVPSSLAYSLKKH
# UniProt O15392: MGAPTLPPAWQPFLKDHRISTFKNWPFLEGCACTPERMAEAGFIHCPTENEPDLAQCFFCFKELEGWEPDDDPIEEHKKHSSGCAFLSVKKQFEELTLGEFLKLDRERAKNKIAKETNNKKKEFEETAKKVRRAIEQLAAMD
# Read-outs that look alike come from different tables or passages of the source. No constants are given. Whether binding was seen depends on the method and setting. In cells and extracts the contact can be indirect. Some results given as binding are weak or reduced against the parent protein; the word gives no strength. For some assays here: Sequences can lack the tags named with a protein.
# T1: Flag-tagged MSL1 (UniProt Q68DK7)
# T1 sequence: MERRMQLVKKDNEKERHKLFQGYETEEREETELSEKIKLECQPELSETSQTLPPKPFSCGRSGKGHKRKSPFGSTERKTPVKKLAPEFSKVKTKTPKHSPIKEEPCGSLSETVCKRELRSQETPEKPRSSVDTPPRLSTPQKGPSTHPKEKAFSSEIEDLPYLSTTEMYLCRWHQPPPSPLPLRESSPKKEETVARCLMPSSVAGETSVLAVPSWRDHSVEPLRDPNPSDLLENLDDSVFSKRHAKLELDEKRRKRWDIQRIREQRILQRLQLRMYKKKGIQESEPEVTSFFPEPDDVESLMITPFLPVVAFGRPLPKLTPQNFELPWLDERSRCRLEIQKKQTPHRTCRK
# T2: Flag-tagged AURKB (Aurora kinase B), wild type, Q96GD4
# T2 chain: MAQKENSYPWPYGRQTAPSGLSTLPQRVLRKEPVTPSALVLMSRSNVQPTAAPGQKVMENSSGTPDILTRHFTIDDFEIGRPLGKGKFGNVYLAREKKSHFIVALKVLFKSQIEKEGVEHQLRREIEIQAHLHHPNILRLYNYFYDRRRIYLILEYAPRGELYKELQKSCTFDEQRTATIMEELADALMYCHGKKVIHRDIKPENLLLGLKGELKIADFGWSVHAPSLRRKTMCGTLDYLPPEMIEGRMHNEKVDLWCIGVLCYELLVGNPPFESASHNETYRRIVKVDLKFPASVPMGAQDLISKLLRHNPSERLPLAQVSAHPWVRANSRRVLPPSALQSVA
# Experiments:
# [1] = molecular target: Flag-tagged INCENP (inner centromere protein) (UniProt Q9NQS7); assay: co-IP; Flag IP (anti-Flag M2 agarose, overnight at 4 °C) from whole-cell lysates of HEK293T cells transfected with the Flag-tagged bait; endogenous partners detected by Western blot; RIPA buffer with 1% NP-40, 150 mM NaCl, 50 mM Tris-HCl, 10% glycerol, 1 mM DTT; in Figure 2M with or without shMSL1
# Flag-tagged MSL1 = molecular target: T1, Flag-tagged MSL1; assay: as above
# [2] = molecular target: Flag-tagged AURKB K215Q (acetylation-mimetic mutant) (UniProt Q96GD4); assay: as above
# [3] = molecular target: Flag-tagged AURKB (Aurora kinase B), wild type (UniProt Q96GD4); assay: as above
# [4] = molecular target: Flag-tagged INCENP (inner centromere protein) (UniProt Q9NQS7); assay: co-IP; HEK293T cells co-transfected with two tagged proteins (Flag, Myc or HA), lysed 48 h later in RIPA buffer (1% NP-40, 150 mM NaCl, 50 mM Tris-HCl, 10% glycerol, 1 mM DTT); IP with anti-Flag (M2) or anti-Myc agarose overnight at 4 °C, Western blot; Figure 3A,B with HA-ubiquitin and MG132; Figure 3H in MSL1-KO against control cells
# [5] = molecular target: T2, Flag-tagged AURKB (Aurora kinase B), …; assay: co-IP; Flag IP (anti-Flag M2 agarose, overnight at 4 °C) from whole-cell lysates of HEK293T cells transfected with the Flag-tagged bait; endogenous partners detected by Western blot; RIPA buffer with 1% NP-40, 150 mM NaCl, 50 mM Tris-HCl, 10% glycerol, 1 mM DTT; in Figure 2M with or without shMSL1; conditions: remark: other sources report otherwise
# [6] = molecular target: Flag-tagged AURKB K215Q (acetylation-mimetic mutant) (UniProt Q96GD4); assay: as above; remark: listed apart in the source
# [7] = molecular target: Flag-tagged INCENP (inner centromere protein) (UniProt Q9NQS7); assay: co-IP; HEK293T cells co-transfected with two tagged proteins (Flag, Myc or HA), lysed 48 h later in RIPA buffer (1% NP-40, 150 mM NaCl, 50 mM Tris-HCl, 10% glycerol, 1 mM DTT); IP with anti-Flag (M2) or anti-Myc agarose overnight at 4 °C, Western blot; Figure 3A,B with HA-ubiquitin and MG132; Figure 3H in MSL1-KO against control cells; remark: listed apart in the source
# [8] = molecular target: Flag-tagged AURKB (Aurora kinase B), wild type (UniProt Q96GD4); assay: as above
molecule,measurement,setting,value
endogenous AURKB (Aurora kinase B) (from UniProt Q96GD4 1-344) (enzyme),binding,[1],binds
same,binding,Flag-tagged MSL1,binds
endogenous INCENP (inner centromere protein) (from UniProt Q9NQS7 1-918),binding,[2],binds
same,binding,[3],binds
Myc-tagged AURKB (from UniProt Q96GD4-1 1-344) (enzyme),binding,[4],binds
endogenous BIRC5 (Survivin) (from UniProt O15392 1-142),binding,[2],binds
same,binding,[3],binds
"endogenous CDCA8 (Borealin), Q53HL2 1-280 (protein) MAPRKGSSRVAKTNSLRRRKLASFLKDFDREVEIRIKQIESDRQNLLKEVDNLYNIEILRLPKALREMNWLDYFALGGNKQALEEAATADLDITEINKLTAEAIQTPLKSAKTRKVIQVDEMIVEEEEEEENERKNLQTARVKRCPPSKKRTQSIQGKGKGKRSSRANTVTPAVGRLEVSMVKPTPGLTPRFDSRVFKTPGLRTPAAGERIYNISGNGSPLADSKEIFLTVPVGGGESLRLLASDLQRHSIAQLDPEALGNIKKLSNRLAQICSSIRTHK",binding,[5],binds
"endogenous CDCA8 (Borealin) (protein, UniProt Q53HL2 1-280) MAPRKGSSRVAKTNSLRRRKLASFLKDFDREVEIRIKQIESDRQNLLKEVDNLYNIEILRLPKALREMNWLDYFALGGNKQALEEAATADLDITEINKLTAEAIQTPLKSAKTRKVIQVDEMIVEEEEEEENERKNLQTARVKRCPPSKKRTQSIQGKGKGKRSSRANTVTPAVGRLEVSMVKPTPGLTPRFDSRVFKTPGLRTPAAGERIYNISGNGSPLADSKEIFLTVPVGGGESLRLLASDLQRHSIAQLDPEALGNIKKLSNRLAQICSSIRTHK",binding,[6],binds
"full-length Myc-tagged MOF (1-458 aa) (enzyme, UniProt Q9H7Z6-1 1-458) MAAQGAAAAVAAGTSGVAGEGEPGPGENAAAEGTAPSPGRVSPPTPARGEPEVTVEIGETYLCRRPDSTWHSAEVIQSRVNDQEGREEFYVHYVGFNRRLDEWVDKNRLALTKTVKDAVQKNSEKYLSELAEQPERKITRNQKRKHDEINHVQKTYAEMDPTTAALEKEHEAITKVKYVDKIHIGNYEIDAWYFSPFPEDYGKQPKLWLCEYCLKYMKYEKSYRFHLGQCQWRQPPGKEIYRKSNISVYEVDGKDHKIYCQNLCLLAKLFLDHKTLYFDVEPFVFYILTEVDRQGAHIVGYFSKEKESPDGNNVACILTLPPYQRRGYGKFLIAFSYELSKLESTVGSPEKPLSDLGKLSYRSYWSWVLLEILRDFRGTLSIKDLSQMTSITQNDIISTLQSLNMVKYWKGQHVICVTPKLVEEHLKSAQYKKPPITVDSVCLKWAPPKHKQVKLSKK",binding,[7],binds
same,binding,[8],binds
